Reference: patent US5824771A (The Salk Institute for Biological Studies, priority 1997, dated 1998)

Assay: general procedure: Boc solid-phase peptide synthesis; MBHA hydrochloride resin (Bachem), about 0.1 to 0.5 mmoles/gm; DCC or DICI; BOP/DIEA for lactam cyclization
Settings: whole synthesis, scale of the general procedure about 3 grams of resin

Substance	final purity (method not given) (CZE)	also measured
H-NDDPPISIDLT[dF]HLLRN[Nle]IE[Nle]ARIENEREEAGKNRKYLDEV-NH2		final purity (method not given) (capillary zone electrophoresis): about 98%
(cyclo 30-33)Ac-Ile-Ser-Leu-Asp-Leu-Thr-D-Phe-His-Leu-Leu-Arg-Glu-Val-Leu-Glu-Nle-Ala-Arg-Ala-Glu-Gln-Leu-Ala- Gln-Glu-Ala-His-Lys-Asn-Arg-Lys-Leu-Nle-Glu-Ile-Ile-NH2	about 98%	
(cyclo 30-33)Ac-Ser-Leu-Asp-Leu-Thr-D-Phe-His-Leu-Leu-Arg-Glu-Val-Leu-Glu-Nle-Ala-Arg-Ala-Glu-Gln-Leu-Ala-Gln- Glu-Ala-His-Lys-Asn-Arg-Lys-Leu-Nle-Glu-Ile-Ile-NH2	about 98%	
pGlu-Gly-Pro-Pro-Ile-Ser-Ile-Asp-Leu-Ser-D-Leu-Glu-Leu-Leu-Arg-Lys-Nle-Ile- Glu-Ile-Glu-Lys-Gln-Glu-Lys-Glu-Lys- Gln-Glu-Ala-Ala-Lys-Asn-Arg-Leu-Leu-Leu-Asp-Thr-Ile-NH2		final purity (method not given) (capillary zone electrophoresis, side-chain lactam ring, sequence written open): about 98%

The same purity stands for every peptide and may come from a single statement. Square brackets hold non-standard residues; d marks the D form. Nle = CCCC[C@H](N)C(=O)O
